Consider one substance from article doi:10.1101/2023.07.09.548245.

Amino acid sequences for entries named in this document (tags omitted). Residues count along the entry.
UniProt P80098, residues 24-99: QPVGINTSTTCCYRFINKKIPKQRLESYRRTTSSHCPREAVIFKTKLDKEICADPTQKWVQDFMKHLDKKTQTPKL

The assay deals with T1, Truncated DARC (27-322) for HDX-MS (human) (UniProt Q4VBN9).
T1 sequence (chain, free cysteines blocked with iodoacetamide; glycosylation removed with PNGase): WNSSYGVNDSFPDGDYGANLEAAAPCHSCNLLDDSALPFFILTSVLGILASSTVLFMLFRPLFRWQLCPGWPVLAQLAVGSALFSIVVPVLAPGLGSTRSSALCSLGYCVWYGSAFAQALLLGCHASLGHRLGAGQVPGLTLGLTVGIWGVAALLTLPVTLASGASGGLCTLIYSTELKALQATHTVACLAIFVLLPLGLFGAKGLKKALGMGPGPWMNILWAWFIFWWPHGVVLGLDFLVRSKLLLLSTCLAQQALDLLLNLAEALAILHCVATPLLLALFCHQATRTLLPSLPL
Briefly: HDX-MS.

No constants are given. Whether binding was seen depends on the method and setting. Some binding calls cover weakened binding; strength is not graded here.

In the case of “Recombinant human CCL7 (from UniProt P80098 24-99) (ligand)”, the binding entry is on record as “binds”.
